No constants are given. Whether binding was seen depends on the method and setting. For some of these results: Binding can be weak; no strength is given. Sequences can lack the tags named with a protein.

Common to all, as to test: two-hybrid; Matchmaker GAL4 Two-Hybrid System 3; BD fusions (pGBKT7) in Y187 mated with AD fusions (pGADT7) in AH109; growth at 30°C on SD/-Leu/-Trp/-Ade/-His with X-α-gal; serial dilutions
For test [1], the target named is Rice black streaked dwarf virus P7-2 fused to the GAL4 DNA-binding domain (Rice black streaked dwarf virus).
The target of test [2] is P7-2 residues 79-309 fused to the GAL4 DNA-binding domain (Rice black streaked dwarf virus).
In test [3] the target is P7-2 residues 25-309 fused to the GAL4 DNA-binding domain (Rice black streaked dwarf virus).
Test [4] has as its target P7-2 residues 44-309 fused to the GAL4 DNA-binding domain (Rice black streaked dwarf virus).
In test [5] the target is P7-2 residues 1-295 fused to the GAL4 DNA-binding domain (Rice black streaked dwarf virus).
Test [6] concerns the target P7-2 residues 1-287 fused to the GAL4 DNA-binding domain (Rice black streaked dwarf virus).

B1: Oryza sativa SKP1-like protein OSK3 fused to the GAL4 activation domain (protein, UniProt A2XFF4 1-508)
chain: MDGNAKGGGHSEALKNYNLGRTLGIGSFGKVKIAEHKLTGHRVAIKILNRRQMRNMEMEEKAKREIKILRLFIHPHIIRLYEVIYTPTDIYVVMEYCKFGELFDYIVEKGRLQEDEARRIFQQIISGVEYCHRNMVVHRDLKPENLLLDSKYNVKLADFGLSNVMHDGHFLKTSCGSPNYAAPEVISGKLYAGPEVDVWSCGVILYALLCGTLPFDDENIPNLFKKIKGGIYTLPSHLSALARDLIPRMLVVDPMKRITIREIREHQWFQIRLPRYLAVPPPDTAQQAKMIDEDTLQDVVNLGYGKDHVCESLRNRLQNEATVAYYLLLDNRFRATSGYLGADYQESLERNFNRFASSESASSNTRHYLPGSSDPHASGLRPHYPVERKWALGLQSRAQPREIMIEVLKALQDLNVSWKKNGQYNMKCRWSVGTQATDMLDVNNSFVDDSIIMDNGDVNGRLPAVIKFEIQLYKTRDEKYLLDMQRVTGPQLLFLDFCADFLTKLRVL
In the case of B1, the binding result in test [1] is “no binding”.

B2: O. sativa Slender Rice 1 (SLR1) fused to the GAL4 activation domain (protein, UniProt Q7G7J6 1-625)
chain: MKREYQEAGGSSGGGSSADMGSCKDKVMAGAAGEEEDVDELLAALGYKVRSSDMADVAQKLEQLEMAMGMGGVSAPGAADDGFVSHLATDTVHYNPSDLSSWVESMLSELNAPLPPIPPAPPAARHASTSSTVTGGGGSGFFELPAAADSSSSTYALRPISLPVVATADPSAADSARDTKRMRTGGGSTSSSSSSSSSLGGGASRGSVVEAAPPATQGAAAANAPAVPVVVVDTQEAGIRLVHALLACAEAVQQENFAAAEALVKQIPTLAASQGGAMRKVAAYFGEALARRVYRFRPADSTLLDAAFADLLHAHFYESCPYLKFAHFTANQAILEAFAGCHRVHVVDFGIKQGMQWPALLQALALRPGGPPSFRLTGVGPPQPDETDALQQVGWKLAQFAHTIRVDFQYRGLVAATLADLEPFMLQPEGEADANEEPEVIAVNSVFELHRLLAQPGALEKVLGTVHAVRPRIVTVVEQEANHNSGSFLDRFTESLHYYSTMFDSLEGGSSGQAELSPPAAGGGGGTDQVMSEVYLGRQICNVVACEGAERTERHETLGQWRNRLGRAGFEPVHLGSNAYKQASTLLALFAGGDGYRVEEKEGCLTLGWHTRPLIATSAWRVAAA
On to B2, for which the binding result in test [1] is on record as “no binding”.

B3: O. sativa gibberellin insensitive dwarf2 (GID2) fused to the GAL4 activation domain (protein, UniProt Q7XAK4 1-212)
chain: MKFRSDSSGGDEPRAPAAGDGGGGGDEPAKRQRTDPSSSSSQGEASSSSQPPPQQQQEEQPPEDAGEGEQPRVPDLGEDLVFEVLRRAEARTLAAAACVSRGWRQLAEDERLWEAACVREWANLGFSERQLRAVVLSLGGFRRLHAVYIRPLQWRGAGVPRQQGRRQPPVRLGRDQVQLSLSLFSIGFFQNMPCPKKDKGNDSDKNGGGQCG
For the molecule B3, the binding result is reported as “no binding” in test [2]; “binds” in test [3]; “binds” in test [4]; “binds” in test [5]; “binds” in test [6]; “binds” in test [1].

B4: Oryza sativa SKP1-like protein OSK4 fused to the GAL4 activation domain (protein, UniProt B8BBT7 1-509)
chain: MEGNARGGGHSEALKNYNLGRTLGIGSFGKVKIAEHKLTGHRVAIKILNRRQMRNMEMEEKAKREIKILRLFIHPHIIRLYEVIYTPTDIYVVMEYCKFGELFDYIVEKGRLQEDEARRIFQQIISGVEYCHRNMVVHRDLKPENLLLDSKYNVKLADFGLSNVMHDGHFLKTSCGSPNYAAPEVISGKLYAGPEVDVWSCGVILYALLCGTLPFDDENIPNLFKKIKGGIYTLPSHLSALARDLIPRMLVVDPMKRITIREIREHQWFQIRLPRYLAVPPPDTAQQAKMIDEDTLQDVVNLGYEKDHVCESLRNRLQNEATVAYYLLLDNRFRATSGYLGADYQESLERNLNRFASSESASSNTRHYLPGSSDPHASGLRPHYPVERKWALGLQSRAQPREIMIEVLKALEDLNVCWKKNGQYNMKCRWSVGYPQATDMLDVNHSFVDDSIIMDNGDVNGRLPAVIKFEIQLYKSRDEKYLLDMQRVTGPQLLFLDFCAAFLTKLRVL
Regarding B4, the binding entry in test [1] is on record as “binds weakly”.

B5: O. sativa gibberellin insensitive dwarf1 (GID1) fused to the GAL4 activation domain (receptor, UniProt Q6L545 1-354)
chain: MAGSDEVNRNECKTVVPLHTWVLISNFKLSYNILRRADGTFERDLGEYLDRRVPANARPLEGVSSFDHIIDQSVGLEVRIYRAAAEGDAEEGAAAVTRPILEFLTDAPAAEPFPVIIFFHGGSFVHSSASSTIYDSLCRRFVKLSKGVVVSVNYRRAPEHRYPCAYDDGWTALKWVMSQPFMRSGGDAQARVFLSGDSSGGNIAHHVAVRAADEGVKVCGNILLNAMFGGTERTESERRLDGKYFVTLQDRDWYWKAYLPEDADRDHPACNPFGPNGRRLGGLPFAKSLIIVSGLDLTCDRQLAYADALREDGHHVKVVQCENATVGFYLLPNTVHYHEVMEEISDFLNANLYY
Turning to B5, the binding result in test [1] was “no binding”.

Values taken from paper PMC5426791.
